Measurements from PMC5059474.
These are yes or no findings as the source states them, for the method shown. In cells and extracts the contact can be indirect.

By UniProt entry, the sequences of proteins in these tests, tags left out.
UniProt Q12888: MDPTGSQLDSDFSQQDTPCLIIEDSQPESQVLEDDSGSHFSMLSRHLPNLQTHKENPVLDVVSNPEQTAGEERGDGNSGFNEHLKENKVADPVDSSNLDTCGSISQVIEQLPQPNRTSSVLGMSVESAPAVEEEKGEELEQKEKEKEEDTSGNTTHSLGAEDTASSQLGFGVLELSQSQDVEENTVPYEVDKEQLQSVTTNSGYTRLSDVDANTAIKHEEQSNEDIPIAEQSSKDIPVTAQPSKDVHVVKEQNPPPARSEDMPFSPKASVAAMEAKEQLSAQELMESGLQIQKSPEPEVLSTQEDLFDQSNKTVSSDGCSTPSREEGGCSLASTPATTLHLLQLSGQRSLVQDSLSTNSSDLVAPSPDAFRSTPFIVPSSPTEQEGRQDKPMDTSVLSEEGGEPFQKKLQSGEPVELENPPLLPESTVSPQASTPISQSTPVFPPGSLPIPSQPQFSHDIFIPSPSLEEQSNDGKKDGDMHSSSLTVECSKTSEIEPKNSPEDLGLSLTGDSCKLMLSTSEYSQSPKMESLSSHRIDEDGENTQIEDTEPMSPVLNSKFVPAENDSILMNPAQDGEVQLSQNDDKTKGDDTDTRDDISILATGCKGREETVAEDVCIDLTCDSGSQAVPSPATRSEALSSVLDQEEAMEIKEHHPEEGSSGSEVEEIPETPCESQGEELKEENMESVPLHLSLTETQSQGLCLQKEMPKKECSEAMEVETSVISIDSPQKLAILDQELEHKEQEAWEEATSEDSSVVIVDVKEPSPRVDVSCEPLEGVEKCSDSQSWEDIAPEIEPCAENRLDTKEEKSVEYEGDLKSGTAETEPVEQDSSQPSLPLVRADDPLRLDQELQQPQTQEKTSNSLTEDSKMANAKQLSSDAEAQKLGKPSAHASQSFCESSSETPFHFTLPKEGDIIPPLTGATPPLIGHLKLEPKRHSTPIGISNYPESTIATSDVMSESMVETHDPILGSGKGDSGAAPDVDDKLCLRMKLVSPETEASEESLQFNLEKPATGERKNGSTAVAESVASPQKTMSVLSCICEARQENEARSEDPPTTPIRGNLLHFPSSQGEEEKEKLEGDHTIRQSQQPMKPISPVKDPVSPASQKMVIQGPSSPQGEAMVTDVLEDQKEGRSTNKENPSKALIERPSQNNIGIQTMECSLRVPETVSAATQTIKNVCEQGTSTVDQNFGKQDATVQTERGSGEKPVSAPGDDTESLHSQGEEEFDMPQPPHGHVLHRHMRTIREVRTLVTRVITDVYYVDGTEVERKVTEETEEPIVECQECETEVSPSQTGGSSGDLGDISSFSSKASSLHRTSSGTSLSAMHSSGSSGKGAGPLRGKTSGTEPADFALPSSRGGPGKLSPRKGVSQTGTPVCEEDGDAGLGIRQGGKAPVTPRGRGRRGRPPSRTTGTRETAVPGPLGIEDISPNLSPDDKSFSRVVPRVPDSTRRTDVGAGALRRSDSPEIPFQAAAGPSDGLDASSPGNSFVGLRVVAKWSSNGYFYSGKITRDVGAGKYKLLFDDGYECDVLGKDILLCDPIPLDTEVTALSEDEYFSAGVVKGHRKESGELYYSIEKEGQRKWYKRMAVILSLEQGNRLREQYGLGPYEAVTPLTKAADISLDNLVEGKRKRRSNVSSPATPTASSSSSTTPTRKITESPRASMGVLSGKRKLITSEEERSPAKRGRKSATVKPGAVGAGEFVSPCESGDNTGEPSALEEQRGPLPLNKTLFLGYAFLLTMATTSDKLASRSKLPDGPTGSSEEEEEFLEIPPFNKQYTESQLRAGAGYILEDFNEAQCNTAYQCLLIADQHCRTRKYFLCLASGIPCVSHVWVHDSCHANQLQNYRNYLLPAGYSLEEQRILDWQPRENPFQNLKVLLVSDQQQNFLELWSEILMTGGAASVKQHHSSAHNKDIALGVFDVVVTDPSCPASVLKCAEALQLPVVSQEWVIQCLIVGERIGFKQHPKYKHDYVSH

Tests used:
Test in all cases: co-IP; benzonase-treated nuclear extracts of HEK293 cells (mock, Bleo 30 μg/ml 1 h, 10–12 h recovery after Bleo, or IR 5 grey); IP with 2-5 μg antibody to the endogenous bait or control IgG and Protein A/G PLUS agarose; three washes with 20 mM HEPES pH 7.9, 150 mM KCl, 0.25% Triton-X-100; western blot
[1] = target: polynucleotide kinase 3′ phosphatase (human (endogenous in HEK293)) (UniProt Q96T60)
[2] = target: T1, Lig IV (human (endogenous in HEK293)) (UniProt P49917)
T1 sequence: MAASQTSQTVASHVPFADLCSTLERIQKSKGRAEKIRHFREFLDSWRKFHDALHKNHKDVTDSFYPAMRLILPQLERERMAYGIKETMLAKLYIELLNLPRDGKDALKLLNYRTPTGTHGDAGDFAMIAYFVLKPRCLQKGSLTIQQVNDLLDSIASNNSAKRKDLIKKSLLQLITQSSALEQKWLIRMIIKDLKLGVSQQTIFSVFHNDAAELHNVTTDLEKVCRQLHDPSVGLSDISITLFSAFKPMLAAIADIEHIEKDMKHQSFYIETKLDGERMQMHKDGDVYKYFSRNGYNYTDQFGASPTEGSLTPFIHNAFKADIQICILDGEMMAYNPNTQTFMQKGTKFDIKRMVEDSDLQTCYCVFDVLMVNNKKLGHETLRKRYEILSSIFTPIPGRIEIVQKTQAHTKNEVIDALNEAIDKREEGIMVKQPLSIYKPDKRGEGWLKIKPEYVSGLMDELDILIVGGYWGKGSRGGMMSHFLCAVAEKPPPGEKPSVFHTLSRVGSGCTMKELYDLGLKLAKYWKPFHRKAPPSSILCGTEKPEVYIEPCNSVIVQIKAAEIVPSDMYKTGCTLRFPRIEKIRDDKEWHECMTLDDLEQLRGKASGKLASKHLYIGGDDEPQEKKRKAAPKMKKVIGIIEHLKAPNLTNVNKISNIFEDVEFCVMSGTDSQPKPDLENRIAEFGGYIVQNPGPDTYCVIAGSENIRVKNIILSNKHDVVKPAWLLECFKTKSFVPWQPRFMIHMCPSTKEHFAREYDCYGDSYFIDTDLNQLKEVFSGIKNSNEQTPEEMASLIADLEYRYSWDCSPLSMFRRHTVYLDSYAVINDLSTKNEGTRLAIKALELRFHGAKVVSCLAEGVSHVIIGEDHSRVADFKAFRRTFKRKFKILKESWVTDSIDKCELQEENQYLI

[3] = target: 53BP1 (human (endogenous in HEK293)) (UniProt Q12888)

binding [1]: no binding | binding [2]: no binding | binding [3]: no binding
B1: RAD52 (protein, UniProt P43351 1-418)
chain: MSGTEEAILGGRDSHPAAGGGSVLCFGQCQYTAEEYQAIQKALRQRLGPEYISSRMAGGGQKVCYIEGHRVINLANEMFGYNGWAHSITQQNVDFVDLNNGKFYVGVCAFVRVQLKDGSYHEDVGYGVSEGLKSKALSLEKARKEAVTDGLKRALRSFGNALGNCILDKDYLRSLNKLPRQLPLEVDLTKAKRQDLEPSVEEARYNSCRPNMALGHPQLQQVTSPSRPSHAVIPADQDCSSRSLSSSAVESEATHQRKLRQKQLQQQFRERMEKQQVRVSTPSAEKSEAAPPAPPVTHSTPVTVSEPLLEKDFLAGVTQELIKTLEDNSEKWAVTPDAGDGVVKPSSRADPAQTSDTLALNNQMVTQNRTPHSVCHQKPQAKSGSWDLQTYSADQRTTGNWESHRKSQDMKKRKYDPS
